Test results as given in PMC9284225.
For at least one entry, the source does not settle the construct or the ends of the probe.

Experiments:
[1] = system: GST-BcWRKY1 (Baphicacanthus cusia); test: EMSA; settings: LightShift Chemiluminescent EMSA kit (Thermo Scientific), manufacturer's instructions; pH and temperature not stated; recombinant protein; protein details: N-terminal GST (pGEX-4T-1)
[2] = system: GST-BcWRKY1 (Baphicacanthus cusia); test: competition with a labelled probe; settings: unlabeled competitor attenuates binding to biotin-labeled N1; LightShift Chemiluminescent EMSA kit (Thermo Scientific), manufacturer's instructions; pH and temperature not stated; recombinant protein; protein details: N-terminal GST (pGEX-4T-1)

Sequence | binding result [1] | binding result [2]
ATGGCGCCATTTGACTAGCGTAGTTTGACCGCTCATGAACA (double strand) [W-box probe] | binds | –
ATGGCGCCATTTGACTAGCGTAGTTTGACCGCTCATGAACA (double strand) [unlabeled W-box competitor] | – | binds
